Measured data: PubChem BioAssay AID652259 (Drosophila RNAi Screening Center, 2013)

- Assay: 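Knock-downs that push a Wingless-driven reporter up or down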 (primary screen)
- Cell system: Drosophila clone 8 imaginal disc epithelial cells
- Reagents: long dsRNA against Drosophila genes
- Challenge: pathway stimulated by co-transfected Wingless expression plasmid
- Read-out: 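Firefly luciferase from a tcf-site Wingless reporter, measured alongside co-transfected Renilla luciferase that tracks transfection; pathway stimulated by a Wingless plasmid; the firefly-to-Renilla ratio is not deposited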
- Direction: firefly reporter light: higher = more Wg reporter light, before normalisation; Renilla control light: higher = more transfected or surviving cells
- Active means: 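a knock-down is a candidate when at least two out of four statistical tests show it departing from its plate mean; one test alone signals a weak candidate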
- Calls: active = candidate regulator (raises or lowers reporter); inactive = not a candidate
In all, the deposit lists about 22,000 reagents; this is a random part of those that have a named target and a result. Of all reagents, 233 (1.1%) are marked active. 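Light values are raw, unnormalised plate reads; the ratio scores behind the reporter calls were not deposited.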 Not given: the amount of reagent, the time to read-out, the dose of the treatment.

Against gny [DRSC02810], the entry reads firefly reporter light, replicate 1 = 6818; Renilla control light, replicate 1 = 2060; inactive.
Against Naa40 [DRSC16265] the deposit lists firefly reporter light, replicate 1 = 7127; Renilla control light, replicate 1 = 3203; inactive.
Depletion of CNPYb [DRSC09845] resulted in: firefly reporter light, replicate 1 = 5690; Renilla control light, replicate 1 = 2323; inactive.
CG1674 [DRSC17107] gave firefly reporter light, replicate 1 = 2677; Renilla control light, replicate 1 = 1252; inactive.
With knock-down of CG1674 [DRSC17142], the record shows firefly reporter light, replicate 1 = 19623; Renilla control light, replicate 1 = 12320; inactive.
Knock-down of CG10950 [DRSC06020] gave: firefly reporter light, replicate 1 = 4680; Renilla control light, replicate 1 = 2341; inactive.
Depletion of hpRNA:CR18854 [DRSC02702] resulted in: firefly reporter light, replicate 1 = 2003; firefly reporter light, replicate 2 = 6880; Renilla control light, replicate 1 = 731; Renilla control light, replicate 2 = 2544; inactive.
For CG13086 [DRSC02190], the entry reads firefly reporter light, replicate 1 = 4939; firefly reporter light, replicate 2 = 7641; Renilla control light, replicate 1 = 1380; Renilla control light, replicate 2 = 2588; inactive.
For AhcyL1 [DRSC08647], the entry reads firefly reporter light, replicate 1 = 4540; Renilla control light, replicate 1 = 2080; inactive.
Depletion of Ran-like [DRSC10918] resulted in: firefly reporter light, replicate 1 = 5604; Renilla control light, replicate 1 = 1840; inactive.
Against Nup93-2 [DRSC16221], the values are firefly reporter light, replicate 1 = 3440; Renilla control light, replicate 1 = 1920; inactive.
Against Elk [DRSC07608], the values are firefly reporter light, replicate 1 = 12533; Renilla control light, replicate 1 = 2162; inactive.
CR33318 [DRSC22949] gave firefly reporter light, replicate 1 = 5.14e5; firefly reporter light, replicate 2 = 5.16e5; Renilla control light, replicate 1 = 2.13e5; Renilla control light, replicate 2 = 1.56e5; inactive.
For futsch [DRSC17688], the values are firefly reporter light, replicate 1 = 3621; Renilla control light, replicate 1 = 1216; inactive.
futsch [DRSC17949] gave firefly reporter light, replicate 1 = 23206; Renilla control light, replicate 1 = 14439; inactive.
After knock-down of futsch [DRSC17952], the record shows firefly reporter light, replicate 1 = 3388; firefly reporter light, replicate 2 = 5224; Renilla control light, replicate 1 = 1211; Renilla control light, replicate 2 = 2961; inactive.
For futsch [DRSC18543] the deposit lists firefly reporter light, replicate 1 = 15669; Renilla control light, replicate 1 = 10705; inactive.

Part of the list above, reformatted:
CR33318 [DRSC22949]
- firefly reporter light, replicate 1: 5.14e5
- firefly reporter light, replicate 2: 5.16e5
- Renilla control light, replicate 1: 2.13e5
- Renilla control light, replicate 2: 1.56e5
- Call: inactive

futsch [DRSC17688]
- firefly reporter light, replicate 1: 3621
- Renilla control light, replicate 1: 1216
- Call: inactive
